# From publication PMC9424271, “Invariant surface glycoprotein 65 of Trypanosoma brucei is a complement C3 receptor” (Nature Communications, 2022)
# Amino acid sequences for entries named in this document (tags omitted). A change or cut given only in a name is not applied to a line headed by its entry.
# UniProt P01024: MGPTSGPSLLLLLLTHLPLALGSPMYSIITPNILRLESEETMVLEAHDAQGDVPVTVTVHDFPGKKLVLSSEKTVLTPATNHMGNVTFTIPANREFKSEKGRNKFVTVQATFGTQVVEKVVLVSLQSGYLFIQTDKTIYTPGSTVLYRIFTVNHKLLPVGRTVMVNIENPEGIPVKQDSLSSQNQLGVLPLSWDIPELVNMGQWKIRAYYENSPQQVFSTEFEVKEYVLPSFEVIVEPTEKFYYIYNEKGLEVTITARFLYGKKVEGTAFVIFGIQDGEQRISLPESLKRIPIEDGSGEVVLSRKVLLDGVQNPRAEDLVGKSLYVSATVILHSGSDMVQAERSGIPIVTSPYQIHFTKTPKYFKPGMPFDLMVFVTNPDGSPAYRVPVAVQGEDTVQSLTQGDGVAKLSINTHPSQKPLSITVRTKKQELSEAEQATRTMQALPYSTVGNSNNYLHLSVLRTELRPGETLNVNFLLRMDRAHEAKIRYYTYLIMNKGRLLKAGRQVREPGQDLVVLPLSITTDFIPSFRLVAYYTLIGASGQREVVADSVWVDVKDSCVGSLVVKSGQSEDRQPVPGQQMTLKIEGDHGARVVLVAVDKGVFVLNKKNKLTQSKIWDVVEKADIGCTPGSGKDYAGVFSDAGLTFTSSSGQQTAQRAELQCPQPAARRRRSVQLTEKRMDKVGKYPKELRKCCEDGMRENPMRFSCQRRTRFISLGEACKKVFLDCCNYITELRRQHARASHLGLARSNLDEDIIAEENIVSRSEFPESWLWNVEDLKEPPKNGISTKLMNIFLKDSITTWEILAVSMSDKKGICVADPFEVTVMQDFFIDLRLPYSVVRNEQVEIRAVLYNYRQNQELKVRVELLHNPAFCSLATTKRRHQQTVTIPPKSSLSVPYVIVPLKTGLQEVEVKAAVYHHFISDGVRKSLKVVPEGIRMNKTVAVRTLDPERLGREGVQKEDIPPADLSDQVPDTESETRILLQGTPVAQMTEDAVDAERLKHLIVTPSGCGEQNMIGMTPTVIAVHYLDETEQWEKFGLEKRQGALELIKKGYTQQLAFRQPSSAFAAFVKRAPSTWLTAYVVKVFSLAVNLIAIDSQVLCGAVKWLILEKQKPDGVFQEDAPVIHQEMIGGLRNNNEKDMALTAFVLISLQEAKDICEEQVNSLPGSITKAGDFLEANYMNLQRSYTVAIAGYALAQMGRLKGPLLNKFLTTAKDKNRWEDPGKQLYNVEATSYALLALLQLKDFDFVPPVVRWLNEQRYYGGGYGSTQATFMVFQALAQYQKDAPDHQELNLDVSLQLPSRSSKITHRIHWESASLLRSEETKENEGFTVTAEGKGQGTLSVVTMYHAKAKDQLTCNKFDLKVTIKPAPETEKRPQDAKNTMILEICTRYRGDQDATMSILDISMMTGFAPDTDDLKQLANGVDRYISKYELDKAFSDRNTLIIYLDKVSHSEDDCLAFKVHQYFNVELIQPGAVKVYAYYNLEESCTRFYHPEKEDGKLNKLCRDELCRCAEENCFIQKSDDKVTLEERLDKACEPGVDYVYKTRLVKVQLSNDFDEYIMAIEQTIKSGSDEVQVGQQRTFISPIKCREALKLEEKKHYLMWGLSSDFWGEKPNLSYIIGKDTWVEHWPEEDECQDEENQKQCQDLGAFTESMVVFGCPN
# Results are given in words; binding and its absence hold for the method and conditions named. Binding seen in cells or lysates may run through a third protein. Some results given as binding are weak or reduced against the parent protein; the word gives no strength. Sequences can lack the tags named with a protein.
# Biological target: T1, avi-tagged ISG65 E1125G on streptavidin agarose beads (T. brucei EATRO1125)
# T1 sequence (chain, biotin on the AviTag): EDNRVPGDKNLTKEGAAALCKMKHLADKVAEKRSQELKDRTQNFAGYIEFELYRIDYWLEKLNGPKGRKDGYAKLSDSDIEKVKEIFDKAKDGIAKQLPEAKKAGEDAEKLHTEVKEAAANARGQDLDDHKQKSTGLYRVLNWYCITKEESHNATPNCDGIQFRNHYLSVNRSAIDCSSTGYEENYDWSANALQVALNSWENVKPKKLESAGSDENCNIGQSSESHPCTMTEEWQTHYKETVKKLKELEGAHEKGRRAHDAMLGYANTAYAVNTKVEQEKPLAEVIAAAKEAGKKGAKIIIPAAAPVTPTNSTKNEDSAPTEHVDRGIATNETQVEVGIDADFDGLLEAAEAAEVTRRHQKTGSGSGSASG
# Assay: pull-down; avi-tagged ISG65 E1125G on streptavidin agarose beads; serum of each species added by gravity flow; washed three times with HBS pH 7.4; eluted with 0.1 M sodium acetate pH 4, 500 mM NaCl; most intense band identified by trypsin-digest mass spectrometry; only the target purified
substance,measurement,value
"Complement C3, human, from serum (from UniProt P01024)",binding,binds
